Results: publication PMC11476584
Results are given in words; binding and its absence hold for the method and conditions named. Binding seen in cells or lysates may run through a third protein. Here binding means that the protein was enriched with, or labelled near, the bait; the list need not be complete.

Chains of the proteins cited; added tags and fusions are not shown. Residues count along the entry.
UniProt P02649, residues 19-317: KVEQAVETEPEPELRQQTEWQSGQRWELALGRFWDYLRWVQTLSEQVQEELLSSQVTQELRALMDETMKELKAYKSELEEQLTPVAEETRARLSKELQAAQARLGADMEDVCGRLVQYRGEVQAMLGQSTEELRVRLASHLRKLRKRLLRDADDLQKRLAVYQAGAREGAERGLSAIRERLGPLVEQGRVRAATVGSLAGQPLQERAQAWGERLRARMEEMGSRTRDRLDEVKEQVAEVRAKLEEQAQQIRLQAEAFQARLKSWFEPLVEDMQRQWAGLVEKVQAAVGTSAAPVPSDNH
UniProt P21796: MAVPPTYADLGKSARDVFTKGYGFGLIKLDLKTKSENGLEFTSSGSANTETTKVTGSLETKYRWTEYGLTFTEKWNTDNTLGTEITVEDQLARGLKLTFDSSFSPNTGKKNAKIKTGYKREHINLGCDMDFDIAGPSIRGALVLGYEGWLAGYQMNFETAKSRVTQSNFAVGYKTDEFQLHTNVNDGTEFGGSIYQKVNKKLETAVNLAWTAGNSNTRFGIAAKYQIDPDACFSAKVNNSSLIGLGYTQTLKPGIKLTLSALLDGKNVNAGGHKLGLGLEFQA

Biological target: Apolipoprotein E3 (APOE3), overexpressed in transfected Huh7 cells (human) (UniProt P02649)
Experiment: affinity purification with mass spectrometry; APOE precipitated with anti-APOE antibody (sc-13521) and Protein G Sepharose, overnight at 4 °C, from lysates of unmodified, mock-, APOE3- and APOE4-transfected Huh7 cells; hits significant and at least twofold more abundant, compared with unmodified cells

Row | Molecule | binding
1 | Voltage-dependent anion-selective channel 1 (VDAC1) (from UniProt P21796 1-283) | binds
2 | Lon protease (LONP1) (enzyme, UniProt P36776 68-959) FWEASSRGGGAFSGGEDASEGGAEEGAGGAGGSAGAGEGPVITALTPMTIPDVFPHLPLIAITRNPVFPRFIKIIEVKNKKLVELLRRKVRLAQPYVGVFLKRDDSNESDVVESLDEIYHTGTFAQIHEMQDLGDKLRMIVMGHRRVHISRQLEVEPEEPEAENKHKPRRKSKRGKKEAEDELSARHPAELAMEPTPELPAEVLMVEVENVVHEDFQVTEEVKALTAEIVKTIRDIIALNPLYRESVLQMMQAGQRVVDNPIYLSDMGAALTGAESHELQDVLEETNIPKRLYKALSLLKKEFELSKLQQRLGREVEEKIKQTHRKYLLQEQLKIIKKELGLEKDDKDAIEEKFRERLKELVVPKHVMDVVDEELSKLGLLDNHSSEFNVTRNYLDWLTSIPWGKYSNENLDLARAQAVLEEDHYGMEDVKKRILEFIAVSQLRGSTQGKILCFYGPPGVGKTSIARSIARALNREYFRFSVGGMTDVAEIKGHRRTYVGAMPGKIIQCLKKTKTENPLILIDEVDKIGRGYQGDPSSALLELLDPEQNANFLDHYLDVPVDLSKVLFICTANVTDTIPEPLRDRMEMINVSGYVAQEKLAIAERYLVPQARALCGLDESKAKLSSDVLTLLIKQYCRESGVRNLQKQVEKVLRKSAYKIVSGEAESVEVTPENLQDFVGKPVFTVERMYDVTPPGVVMGLAWTAMGGSTLFVETSLRRPQDKDAKGDKDGSLEVTGQLGEVMKESARIAYTFARAFLMQHAPANDYLVTSHIHLHVPEGATPKDGPSAGCTIVTALLSLAMGRPVRQNLAMTGEVSLTGKILPVGGIKEKTIAAKRAGVTCIVLPAENKKDFYDLAAFITEGLEVHFVEHYREIFDIAFPDEQAEALAVER | binds
3 | Mitochondrial import receptor subunit TOM40 (TOMM40) (protein, UniProt O96008 1-361) MGNVLAASSPPAGPPPPPAPALVGLPPPPPSPPGFTLPPLGGSLGAGTSTSRSSERTPGAATASASGAAEDGACGCLPNPGTFEECHRKCKELFPIQMEGVKLTVNKGLSNHFQVNHTVALSTIGESNYHFGVTYVGTKQLSPTEAFPVLVGDMDNSGSLNAQVIHQLGPGLRSKMAIQTQQSKFVNWQVDGEYRGSDFTAAVTLGNPDVLVGSGILVAHYLQSITPCLALGGELVYHRRPGEEGTVMSLAGKYTLNNWLATVTLGQAGMHATYYHKASDQLQVGVEFEASTRMQDTSVSFGYQLDLPKANLLFKGSVDSNWIVGATLEKKLPPLPLTLALGAFLNHRKNKFQCGFGLTIG | binds
